In PubChem BioAssay AID449728 (The Scripps Research Institute Molecular Screening Center, 2010) one finds inhibition data, which are given here for two compounds.

Molecules are shown by their SMILES. Only a part is listed here, and it is no random draw. Calls of active or inactive are those of the source.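 The calls were made as follows: active = inhibition above the campaign's mean inhibition across all tested compounds plus 3 SD (cut at about 9.9% in these data); inactive = the rest.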

The test is described as follows: bacterial viability reduction in E. coli – absorbance, OD600, counter-screen for AddAB inhibitor project, primary screen (AID 449728).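 Also: uninfected addAB+ strain grown without phage in ampicillin broth; 0% = DMSO wells and 100% = ciprofloxacin 0.95 µg/ml wells.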 Particulars: E. coli V3065 growth, 18 h, at 11.9 µM, active compounds read high.
For the compound `Oc1cc2c(c(Cl)c1O)CCNCC2c1ccccc1` (configuration not stated), the inhibition was active: 10.7%.

`Cc1c2cc(O)c(=O)cc-2oc2cc(O)c(O)cc12`: the inhibition is active: 11.1%.

By inhibition is commonly meant how much of the control response was suppressed.
